The record followed here is PMC12040169 (PLOS Biology, 2025).

The other results are listed elsewhere or left out.

For this test, the system named is T1, CTL2-GFP (C. trachomatis L2/434/Bu, GFP-expressing).
T1 construct: L2/434/Bu, GFP-expressing
On the set-up: species or system HeLa; Intracellular C. trachomatis growth in HeLa cells, bulk GFP fluorescence relative to DMSO. The conditions noted are these: bulk GFP, single well; 28.5 h, 10 µM; inhibitor.
Consider `O=C(NCc1ccco1)c1c(NC(=O)C2CCCO2)sc2c1CCC2` (stereo not drawn) [CBK268180], for which the “% of control remaining” value stood at 97.1736%.
The figure for `Cc1ccc(C(=O)NCCN2CCOCC2)cc1S(=O)(=O)N1CCCCC1` [CBK267329] is 139.066%; for `c1ccc(CC2CCN(CCC(c3ccccc3)c3ccccc3)CC2)cc1` [CBK126389] it is 95.7571%; for `COc1ccc(NC(=O)COc2noc3nc(C)c(C)c(C)c23)cc1OC` [CBK269526] it is 120.41%.
Under `FC(F)(F)Sc1ccc(COc2cccc3cccnc23)cc1` [CBK002776] stands 80.2418%; under `C/C=C/c1ccc(OCCCSc2ccc(Cl)cc2)c(OC)c1` [CBK264147], 100%.
The figure for `CCOc1ccc(C(=O)Nc2ccc(Cc3ccncc3)cc2)cc1[N+](=O)[O-]` [CBK262867] is 100.318%; for `CCC(C)CC(=O)NS(=O)(=O)c1cc(C#N)ccc1C` (stereo not drawn) [CBK306487] it is 63.4184%; for `O=C(O)CCC(=O)Nc1nc(-c2ccc(Cl)cc2)cs1` [CBK299829] it is 133.243%.
Turning to `COC[C@H]1CCCN1C(=O)CC[C@H]1CNC(=O)[C@@H]2[C@@H](CCN2C2CCOCC2)N1C` [CBK289037], the “% of control remaining” value turned out to be 149.6%.
The figure for `c1ccc2c(c1)nc(-c1cscn1)n2CCCCc1nnn[nH]1` [CBK267110] is 131.627%.
For the compound `Cc1nc(C2CCN(C(=O)c3ccccn3)CC2)c2sccn12` [CBK282238], the “% of control remaining” value stood at 116.951%.
Take `CS(=O)(=O)Nc1nccnc1N1CCN(Cc2ccc(Cl)c(Cl)c2)CC1` [CBK084267]: the “% of control remaining” value stood at 79.0123%.
The figure for `COc1ccccc1-c1nccnc1OC(c1ccccc1)c1ccccc1` [CBK106813] is 100.736%; for `COc1ccc(CN(Cc2cccs2)[C@@H]2COC[C@H]2c2ccc(F)cc2)cc1` [CBK286487] it is 86.5841%.
On to `CCN(CC1CCN(C)C1)C(=O)c1cc(COc2cccc(F)c2)[nH]n1` (stereo not drawn) [CBK307239], for which the “% of control remaining” value was 156.956%.
The figure for `COc1cccc(-c2cnc(N)c(NCc3ccco3)n2)c1` [CBK063684] is 163.948%.
Under `CC1c2ccsc2CCN1C(=O)COc1ccc(Br)cc1` (stereo not drawn) [CBK304999] stands 112.969%; under `Cn1cc(-c2ncc(OCCc3c[nH]c4ccccc34)nc2N)cn1` [CBK145166], 122.587%.
Take `CC(CCCC(C)(C)O)Nc1cncc(-c2cccc(C(=O)O)c2)n1` (stereo not drawn) [CBK065489]: the “% of control remaining” value is reported as 67.7342%.
Under `CSc1nnc(CC2CCN(C(=O)c3ccccc3C(C)=O)CC2)n1C` [CBK306720] stands 119.885%; under `COc1ccc(Nc2nccc3c2nnn3C)cc1` [CBK287879], 119.095%; under `CC(=O)Nc1cccc(NC(=O)CSc2ncnc3c2nnn3C)c1` [CBK287829], 112.002%.
Under `O=C(O)c1cccc(Nc2nc3ccccc3nc2NS(=O)(=O)c2ccc(Br)cc2)c1` [CBK296113] stands 115.447%; under `CN(CC(=O)OCC(=O)c1ccccc1)S(=O)(=O)c1ccc(Cl)cc1` [CBK264363], 102.599%; under `Cc1nc2ccccc2nc1COC(=O)c1ccc(S(=O)(=O)N2CCCCC2C)cc1` (stereo not drawn) [CBK297932], 122.942%.
The figure for `NC(=O)c1ccccc1NC(=O)c1ccc2ccccc2c1` [CBK261171] is 110.61%; for `Cn1cc(C(=O)N2CCc3nc(-c4ccccc4F)sc3C2)cn1` [CBK281914] it is 111.814%; for `Cc1ccc(C(NC(=O)CC(C)C)c2ccc3cccnc3c2O)cc1` (stereo not drawn) [CBK293943] it is 136.411%.
Take `CCCCCOc1nccnc1N1CCNCC1` [CBK001901G]: the “% of control remaining” value came out at 105.243%.
Under `O=S1(=O)N=CNc2ccccc21` [CBK028171] stands 100.192%; under `C=CCn1c(SCCC(=O)O)nc2c1c(=O)n(C)c(=O)n2C` [CBK269573], 153.327%; under `O=C(Cn1c2ccccc2n2ncnc12)c1ccc(-c2ccccc2)cc1` [CBK263097], 82.5912%.
The figure for `O=C(Nc1ccc(F)c(Cl)c1)c1cccnc1Sc1cccs1` [CBK057512] is 100.284%; for `O=c1c2c3nc4ccccc4nc3n(CCc3ccccc3)c2ncn1C1CCCC1` [CBK269464] it is 93.0415%; for `CCS(=O)(=O)NC1CCN(c2nc(C(F)(F)F)nc3[nH]cnc23)CC1` [CBK304588] it is 128.813%.
Under `CCC(C)c1ccc(NC(=O)CSc2nnnn2C)cc1` (stereo not drawn) [CBK058085] stands 107.823%; under `CC(C)(C)OC(=O)NCCc1ccc(Nc2cc(-c3ccc4c(c3)OCO4)ncn2)cc1` [CBK090957], 109.876%.
Regarding `FC(F)(F)c1ccc(SCc2cccs2)nc1` [CBK103711], the “% of control remaining” value was determined as 95.151%.
In the case of `Cc1cc(C)c2cc(CN(CCO)Cc3nnnn3CC3CCCO3)c(=O)[nH]c2c1` (stereo not drawn) [CBK108944], the “% of control remaining” value turned out to be 128.158%.
Under `CCN(CC)CCN(CC(=O)Nc1c(C)cccc1Cl)Cc1ccccc1` [CBK023143] stands 135.227%; under `c1ccc(COCCCN2CCC3(CC2)OCCc2c3[nH]c3ccccc23)cc1` [CBK040208], 100%.
The figure for `O=C(Cc1cccc(F)c1)N1CCC(c2cc3ncccc3[nH]2)CC1` [CBK283374] is 101.894%; for `O=C(c1ccccc1O)N1CCN(Cc2cc(=O)n3ccsc3n2)CC1` [CBK306096] it is 138.019%.
The figure for `Nc1nc(Cl)c2ncn([C@H]3C[C@@H](O)[C@@H](CO)O3)c2n1` [CBK201193] is 140.714%.
For the compound `COc1ccc(Cc2n[nH]c(=S)n2-c2cccnc2)cc1` [CBK288373], the “% of control remaining” value amounted to 134.448%.
Regarding `O=c1c2cccnc2ncn1CC(O)COc1ccc(-c2ccccc2)cc1` (stereo not drawn) [CBK296690], the “% of control remaining” value is recorded as 127.996%.
Under `O=C(O)C1C(C(=O)O)C1C(=O)O` (stereo not drawn) [CBK230432] stands 108.954%.
The figure for `Cc1cccn2c(=O)cc(CN3CCC(CNc4ccccn4)C3)nc12` (stereo not drawn) [CBK306123] is 135.818%; for `CC(=O)N1CCC2(CC1)NC(=O)N(c1ccc(C(=O)O)cc1)N2` [CBK286758] it is 126.539%; for `O=C(Cn1c(-c2cncs2)nc2ccccc21)NCc1ccccc1` [CBK264705] it is 100%.
The figure for `O=C(Nc1ccc2nc3n(c(=O)c2c1)CCCC3)C1CCCCC1` [CBK304383] is 111.139%.
With `Cc1ccc(S(=O)(=O)NCCCO)cc1C(=O)O` [CBK266610], the “% of control remaining” value is 156.746%.
Under `O=C(c1cc(C2CCCN(Cc3ccccc3)C2)no1)N1CCCC1` (stereo not drawn) [CBK283395] stands 108.117%; under `Cc1ccc(Cc2c(C)nc(N3CCN(Cc4ccccc4)CC3)[nH]c2=O)cc1` [CBK270170], 71.7097%; under `O=S(=O)(Nc1nnn[nH]1)c1cccc2nonc12` [CBK062380], 192.828%.
Under `CC(C)n1c(=O)n(CC(=O)NC2CCCCC2)c2cccnc21` [CBK283696] stands 102.283%; under `C=CCOc1ccc2ccccc2c1CNc1nn[nH]n1` [CBK267619], 140.445%.
The figure for `O=C(c1cc(F)cc(F)c1)N1CCC(O)(c2cccnc2F)CC1` [CBK284361] is 122.006%; for `CC(=O)N1CCC2(C/C=C/C[C@H]3CN(CCO)CC[C@H]3NC(=O)CNC2=O)CC1` [CBK292139] it is 115.013%; for `CC(Sc1ccc(Cl)cc1)C(=O)Nc1ccc(CSc2ccccc2)cc1` (stereo not drawn) [CBK264670] it is 122.484%.
For `Cc1ccc(NS(=O)(=O)c2cc(C(=O)N3CCN(C)CC3)ccc2C)cc1` [CBK268577], the “% of control remaining” value turned out to be 124.94%.
As for `COc1ccc(CC(=O)NNC(=O)Nc2ccc(Cl)c(Cl)c2)cc1` [CBK262652], the “% of control remaining” value is 104.775%.
Under `O=C(NCCSCc1ccco1)Nc1ccc(Cl)cc1` [CBK267869] stands 137.682%; under `CC1(NC(=O)CC(c2ccncc2)c2c[nH]c3ccccc23)CCC1` (stereo not drawn) [CBK281610], 116.099%; under `COc1ccc(OCc2nn(-c3nc4ccccc4s3)c(N)c2-c2ccccc2)cc1` [CBK266539], 128.968%.
Under `CCCOc1ccc(C(C)=O)cc1CC(C(N)=O)C(N)=O` [CBK263309] stands 110.806%; under `Cc1ccc(S(N)(=O)=O)cc1-c1nnc2c3ccccc3c(C)nn12` [CBK266680], 108.193%.
The figure for `COc1ccc(N2C(=O)CC(n3c(CCCCO)nc4ccccc43)C2=O)cc1` (stereo not drawn) [CBK268895] is 99.9779%.
Take `Cc1csc([C@H]2Cc3ccsc3[C@@H](C3CCOC3)N2)n1` (stereo partly drawn) [CBK285089]: the “% of control remaining” value was determined as 139.549%.
On to `Cn1nnnc1NC(=O)c1ccccc1F` [CBK058776], for which the “% of control remaining” value turned out to be 91.6655%.
The figure for `CCn1ncnc1CN(C)Cc1ccc2c(c1)CN(C)C2` [CBK306530] is 133.18%; for `CCc1ccc(C(O)CNC2CCN(CCOC)CC2)cc1` (stereo not drawn) [CBK304259] it is 116.05%; for `CCCCNC(=O)c1c(N)n(-c2ccc(C(=O)O)cc2)c2nc3ccccc3nc12` [CBK300500] it is 164.977%.
Under `CC(=O)c1ccc(OC(C)C)c(CSc2nc(O)cc(O)n2)c1` [CBK263446] stands 117.941%; under `COc1ccc(S(=O)(=O)N(CC(=O)O)C2CCCCC2)cc1Cl` [CBK267997], 121.244%.
The figure for `Cc1nc(-c2n[nH]cc2-c2ccccc2F)sc1CCN` [CBK281578] is 124.796%.
Turning to `Oc1ccc(/N=C/c2ccc(/C=N/c3ccc(O)cc3)cc2)cc1` [CBK261203], the “% of control remaining” value came to 102.432%.
The figure for `N#C/C(=C\c1ccc(OCC(=O)O)cc1)C(N)=S` [CBK268917] is 162.129%; for `CC(C)(CN1CCCCC1)NC(=O)CCOc1cccc(F)c1` [CBK282060] it is 98.6744%; for `CN(CCN1CCOCC1)c1nc2c(c(=O)[nH]1)Cc1ccccc1OC2` [CBK306783] it is 124.379%.
